Data taken from ChEMBL document CHEMBL3988442, “University of Dundee, Small-Polar-MMV Screening Library” (2021).

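Whole-parasite assay of Trypanosoma brucei over 72 hours; the read-out is not stated. Concentration: 30 µM. The record gives no direction; compounds that gave an IC50 in retests scored well above the rest, so higher reads as stronger inhibition. Values scatter widely below zero; nearly all retest evidence comes from the higher of the two concentrations used. About 64,000 compounds were tested under these conditions; 1.5% (about 940) showed 50% or more at least once.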

Each number is a percent effect as filed. The controls that fix the scale are not given in the record; negative values are as filed. The compounds are a random part of those screened.

SMILES,effect
O=C(Cn1nc(-c2ccc(F)cc2)oc1=O)NCc1ccncc1,11.68%
Cc1ccc2oc(=O)n(CC(=O)N3CCC4(CC3)CN(C)C(=O)O4)c2c1,11.67%
CCOCC1CN(c2ccncn2)Cc2cnn(CC3CC3)c21.O=C(O)C(F)(F)F.O=C(O)C(F)(F)F (centres undefined),19.16%
O=C(O)C(F)(F)F.[H][C@]12OCCC[C@]1([H])N(C(=O)c1ccc(C)o1)C[C@H]2OCc1cccnc1,5.646%
CNC(=O)c1ccc(C(=O)N2CCCC(n3ccnc3)C2)cn1 (centres undefined),-5.495%
N#Cc1cccnc1N1CCC(OCc2ccccc2)CC1,8.981%
Cn1cc(C(=O)N2CCCC(c3cc(O)n(C)n3)C2)cn1 (centres undefined),-15.94%
[H][C@]12CC[C@](O)(c3ccc(C)cc3)[C@@]1([H])CN(S(=O)(=O)CC)C2,-11.36%
CC(C)c1ncc(CNC2(c3ccc(Cl)cc3)CC2)cn1,-15.7%
CC(C)c1noc(CCC(=O)NCC2CCOC2)n1 (centres undefined),-15.69%
COc1cccc(CNc2cc(C)nc(-c3ccncc3)n2)c1O,-3.803%
Cc1ccc(NC(=O)CN2CCCNC2=O)c(SC(F)(F)F)c1,4.231%
Cc1cc(CN(C)C(=O)NC2CCN(Cc3ccccn3)CC2)no1,0.08363%
Cc1nn(C)c2cn(C(C)C(=O)NCc3cccnc3)nc12 (centres undefined),43.35%
CCn1ncnc1CN1CCc2[nH]cnc2C1CCc1ccccc1 (centres undefined),-22.52%
COc1ccccc1C(N)CC(C)C (centres undefined),-12.31%
NS(=O)(=O)c1cnn(CCC(=O)N(C2CCCCC2)C2CC2)c1,-4.451%
CNC(=O)C1Cc2ccccc2CN1CCc1cccs1 (centres undefined),-21.41%
CCc1nc(C)ncc1C(=O)N1CCOC(c2nc(C)n[nH]2)C1 (centres undefined),-5.324%
CN1CCc2ccc(NCc3cscn3)cc2C1=O,-65.52%
O=C(NC1CC1)c1cc(NC(=O)N2CCCC(O)C2)ccc1Cl (centres undefined),-31.69%
O=C(NCc1ccc(F)cc1F)C(c1cccnc1)N1CCOCC1 (centres undefined),-21.79%
COC(=O)c1ccc(C2SC(C)=Nc3c2c(=O)[nH]n3C2CCCC2)cc1 (centres undefined),8.697%
[H][C@@]12CN(C(=O)NC3CC3)C[C@]1([H])C(=O)N(c1ccccc1)C2,-14.94%
COCCc1ncc(-c2c(C#N)c(N)nc3c2CCc2[nH]ccc2-3)cn1,-1.204%
O=C(O)C(F)(F)F.O=C(O)C(F)(F)F.O=C1NC2(CCN(Cc3ccoc3)CC2)CC1c1ccncc1 (centres undefined),-10.5%
CCN(C(c1cccnc1)c1ccc2c(c1)CCC2)S(C)(=O)=O (centres undefined),-8.034%
CN(C)C(=O)c1cccc(CN2CCOC(Cn3cccn3)C2)c1 (centres undefined),-4.648%
CCCC1(NC(=O)C(c2ccc(F)cc2)N(C)C)CC1 (centres undefined),-19.08%
N[C@@H]1CCCN(C(=O)Cc2c[nH]c3ccccc23)[C@H]1c1ccccc1F,82.48%
CCN(c1ccc(C(=O)NCc2ccnc(C)n2)cc1)C(C)C,-27.45%
COc1nc2ccccc2cc1CN1CCC(CNS(C)(=O)=O)C1 (centres undefined),-11.93%
COC(=O)c1ccc(OC)c(OC23CCCN(CC2)C3)c1 (centres undefined),-20%
COc1ccc(-c2cc(C(=O)N3N=C(C)CC3(O)C(F)(F)F)[nH]n2)cc1 (centres undefined),-43.43%
O=C(O)C(F)(F)F.O=C(O)C(F)(F)F.[H][C@@]12COC[C@]1(COCc1ccncc1)CN(Cc1ccsc1)C2,16.71%
NC(=O)c1cnc(NC2CCN(c3ccccn3)CC2)c(Cl)c1,27.06%
O=C(NCC1CCCO1)c1cc(Sc2ncccn2)ccn1 (centres undefined),-35.77%
C[S+]([O-])c1cccc(NC(=O)N(CCC#N)Cc2ccccn2)c1 (centres undefined),-45.19%
CCN(CC)C(C(=O)NCc1ccc(N2CCCC2)nc1)C(C)C (centres undefined),-22.9%
NC(=O)C1CCN(c2ncccc2C(=O)N2CCc3ccccc32)C1 (centres undefined),-61.12%
Cc1noc(C)c1CN1CC[C@H](OCC2CC2)[C@@H](Cc2ccccc2)C1,-2.251%
C1CC(NCC2CC2)CN(Cc2noc(C3CC3)n2)C1 (centres undefined),-4.666%
CN1CCN(C(=O)c2n[nH]c3c2CCN(Cc2nccs2)C3)CC1,-157.5%
O=C(NCCN1CCCC1)c1nc2c(o1)CN(C(=O)c1cccnc1)C2.O=C(O)C(F)(F)F.O=C(O)C(F)(F)F,-0.7263%
COCCN1CCC2(CCCN(C(=O)c3cncn3C)C2)CC1.O=C(O)C(F)(F)F,-78.22%
COc1cc(CNC(=O)C2CC(=O)N(C(C)C)C2)ccn1 (centres undefined),-20.42%
Cc1cnn(CC(C)NCc2c(C)nn(Cc3ccccc3)c2C)c1 (centres undefined),-24.04%
Cc1ccsc1-c1nnc(SCC(=O)O)n1C(C)c1ccccc1 (centres undefined),-33.91%
COc1ccccc1N1CC(NC(=O)Cn2cc(C)nn2)CC1=O (centres undefined),-21.54%
O=S(=O)(NCC1COc2ccccc2C1)N1CCCCCC1 (centres undefined),0.04264%
O=C(O)C(F)(F)F.[H][C@]12CCC[C@@]1(COc1ccccn1)CN(C(=O)c1c(C)noc1C)C2,18.41%
COCCNC(=O)NCCCOC1CCCc2ccccc21 (centres undefined),-17.09%
CCOc1ccc(Cl)c(C(=O)N2CCCN(CC(N)=O)CC2)n1,-1.289%
O=c1cc(CN2CCCC2)nc2n1CCCN(Cc1ccoc1)C2,-18.6%
COC(=O)c1sccc1S(=O)(=O)N1CCC(Oc2cccc(C)n2)CC1,5.022%
CCCC(=O)Nc1ccc(CC(=O)N(CC)CC2CCCCO2)cc1 (centres undefined),-50.35%
CNC(=O)CN(C)c1cncc(OCc2ccccc2)n1,-44.77%
O=C(NC1CC2(CCN(CCO)CC2)c2ccccc21)c1ccno1.O=C(O)C(F)(F)F (centres undefined),-63.34%
Cc1n[nH]c(C2CN(C(=O)c3cc(Cl)c[nH]3)CCO2)n1 (centres undefined),43.09%
CC(=O)N1CCCn2nc(CNC(=O)N3CCCCC3)cc2C1,-45.6%
O=C1CCNc2ccccc2CN1Cc1ccco1,-22.63%
CNc1nc(C(=O)N2CCN(c3cc(C)nc(C)c3)CC2)cs1,-16.48%
[H][C@]12CC[C@]([H])(CN(C(=O)C3CCC3)C1)N(C(=O)c1ccc(OCC)cc1)C2,-17.08%
Cc1ccccc1C(=O)N1CC2(COC(C)(C)OC2)C1,-24.06%
O=C(O)C(F)(F)F.[H][C@@]12CCN(Cc3ccc(C)o3)C[C@@]1([H])[C@H](C(=O)N1CCCCO1)CCO2,-3.914%
CCn1ccnc1CN1CCC(N(C)Cc2ncc(C)o2)C1 (centres undefined),-9.716%
Cc1cc(N2CCN(C(=O)Cc3ccc4c(c3)OCO4)CC2)cc(C)n1,-49.68%
O=C(NCc1ccc(-n2cncn2)nc1)c1cnccn1,-7.442%
Cc1cc(NC(=O)NCC2COc3ccccc3C2)no1 (centres undefined),-14.82%
CCn1ccnc1CN(C)C(=O)Cn1ccc2ccccc2c1=O,-32.88%
C/C(=C/c1ccccc1)CNCc1cccc(C(N)=O)c1,-6.27%
O=C(NCc1cnc2n1CCN(CC1CCOCC1)C2)c1ccno1.O=C(O)C(F)(F)F,-28.61%
CC1CCCN1C1CCN(C(=O)c2cccc(F)c2)CC1 (centres undefined),-22.07%
CC(Cn1cccn1)NCc1csc(-c2ccccc2F)n1 (centres undefined),4.797%
c1cc(-c2nnc3sc(CCN4CCCC4)nn23)ccn1,-19.56%
CCOC(=O)N1CCN(C(=O)c2sc(-c3ccccc3)nc2C)CC1,-75.74%